Measurements published in the supplement of paper PMC10735217.
Structures can show the parent of a compound that is named as a salt. The list shows a part of the results. This data set is noisy: repeats of one test often differ as much as different tests do.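 In a drug-repurposing library screen, luminescence reads luciferase driven by eight TEAD-binding elements, stably integrated into human kidney-derived cells. Compounds scoring over five robust Z scores above the plate mean are called hits.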

System: HEK293A TEAD-LUC reporter
Test: TEAD-luciferase reporter activity (YAP activation), robust Z score vs plate; higher = stronger YAP/TEAD activation
Details: 24 h

| Compound | TEAD-luciferase reporter activity (compound concentration: 200 nM) | TEAD-luciferase reporter activity (compound concentration: 2 uM) | TEAD-luciferase reporter activity (compound concentration: 10 uM) |
| --- | --- | --- | --- |
| Cc1ccc(S(=O)(=O)NC(=O)NC(C)Cc2ccccc2)cc1 (stereo not given) [Tosifen] | inactive: -1.21 | inactive: -1.86 | inactive: 0.462 |
| COc1ccc2c(=O)c3ccccc3oc2c1CN1CCCCC1 [mepixanox] | inactive: 2.17 | inactive: 0.338 | inactive: 4.59 |
| COc1ccccc1OCC(O)CNC(C)C (stereo not given) [levomoprolol] | inactive: -1.02 | inactive: -1.86 | inactive: -1.41 |
| Cc1cc(OCC2(CONC(=N)N)CC2)cc(OS(=O)(=O)c2ccccc2S(C)(=O)=O)c1 | inactive: -0.471 | inactive: 1.35 | inactive: 1.3 |
| [NH3+][Pt-2]1([NH3+])[O]C(=O)C2(CCC2)C(=O)[O]1 | – | inactive: -1.16 | – |
| [NH3+][Pt-2]1([NH3+])[O]C(=O)C2(CCC2)C(=O)[O]1 [Carboplatin] | inactive: 0.601 | inactive: -2.54 | inactive: 1.2 |
| CC(C)NCC(O)COc1cccc2[nH]ccc12 (stereo not given) | inactive: -0.271 | – | inactive: 0.76 |
| CC(C)NCC(O)COc1cccc2[nH]ccc12 (stereo not given) [pindolol] | – | inactive: -1.58 | – |
| O=C(CCCN1CCc2[nH]c3ccc(F)cc3c2C1)c1ccc(F)cc1 | inactive: -0.214 | inactive: -1.27 | inactive: 0.759 |
| CCCn1c(=O)c2[nH]c(C3CCC(=O)C3)nc2n(CCC)c1=O (stereo not given) | inactive: -1.55 | inactive: 0.0057 | inactive: 2.95 |
| COc1cc(C2CCC(c3cc(OC)c(OC)c(OC)c3)S2)cc(OC)c1OC (stereo not given) | inactive: -1.85 | inactive: -1.26 | inactive: 0.0282 |
| CC(O)(c1ccncc1)c1cnc(-c2ccc(F)cc2)s1 (stereo not given) | inactive: -0.869 | inactive: 0.152 | inactive: -1.03 |
| CN1C(=N)N(c2ccccc2)CC1=O | inactive: -0.822 | inactive: -1.98 | inactive: -0.567 |
| CN(C(=O)Nc1ccccc1)C1CCOc2ccccc21 (stereo not given) | inactive: -0.866 | – | inactive: -0.755 |
| COC(=O)[C@H](C/C=C/c1ccc(N(C)c2ncccn2)cc1)NC(=O)C1CCCCC1 | inactive: -1.16 | inactive: -1.42 | inactive: -1.59 |
| CN1CCN(C2Cc3ccccc3Sc3ccc(Cl)cc32)CC1 (stereo not given) [(??)-Octoclothepin maleate] | inactive: 0.547 | – | inactive: 3 |
| CN1CCN(C2Cc3ccccc3Sc3ccc(Cl)cc32)CC1 (stereo not given) [clorotepine] | – | inactive: -0.256 | – |
| Nc1[nH]c(=O)ncc1F [Flucytosine] | – | inactive: -0.234 | – |
| Nc1[nH]c(=O)ncc1F | inactive: -0.993 | – | inactive: 0.0127 |

| Compound | TEAD-luciferase reporter activity (compound concentration: 200 nM) | TEAD-luciferase reporter activity (compound concentration: 2 uM) | TEAD-luciferase reporter activity (compound concentration: 10 uM) |
| --- | --- | --- | --- |
| CC(C)c1cc(-c2nnc(O)n2-c2ccc3c(ccn3C)c2)c(O)cc1O [Ganetespib] | inactive: -1.87 | – | inactive: -2.49 |
| CC(C)c1cc(-c2nnc(O)n2-c2ccc3c(ccn3C)c2)c(O)cc1O [ganetespib] | – | inactive: -0.814 | – |
| COC(=O)N[C@H](C(=O)N1CC2(CC2)C[C@H]1c1ncc(-c2ccc3c(c2)C(F)(F)c2cc(-c4ccc5nc([C@@H]6[C@H]7CC[C@H](C7)N6C(=O)[C@@H](NC(=O)OC)C(C)C)[nH]c5c4)ccc2-3)[nH]1)C(C)C [Ledipasvir] | inactive: -1.99 | inactive: -1.38 | inactive: 1.25 |
| C=CCCCCCCCCC(=O)O [10-Undecenoic Acid] | inactive: -0.408 | inactive: -0.441 | inactive: 2.67 |
| C[C@]12CCC(=O)C=C1[C@@H]1C[C@@H]1[C@H]1[C@@H]3[C@@H]4C[C@@H]4[C@@]4(CCC(=O)O4)[C@@]3(C)CC[C@@H]12 | inactive: 0.855 | inactive: -0.744 | inactive: 0.401 |
| CCCCc1nc(Cl)c(CO)n1Cc1ccc(-c2ccccc2-c2nnn[nH]2)cc1 [Allisartan] | inactive: -0.535 | inactive: 0.00776 | inactive: 0.0785 |
| C[C@@H]1CN(c2ncc(C(O)CO)cc2Cl)CCN1c1nc2c(-c3cc(F)c(F)c(F)c3)cc(C(F)(F)F)cc2[nH]1 (stereo not given in full) | inactive: -2.05 | inactive: -0.297 | inactive: -1.74 |
| COc1ccc(CNC(=O)c2cc(-c3cncc(Cl)c3)cnc2-c2ccccn2)nc1OC | inactive: 1.15 | inactive: 2.41 | inactive: -1.13 |
| C/C(=C(/OCCOc1ccc(Cl)cc1)c1ccc(Cl)cc1Cl)n1ccnc1 | inactive: -2.19 | inactive: 0.168 | inactive: 1.84 |
| Oc1cc(O)cc(O)c1 [Phloroglucinol] | inactive: -0.143 | inactive: -0.892 | inactive: -1.46 |
| Nc1ccc(C2=NNC(=O)CC2)cc1 | inactive: 1.09 | inactive: -1.67 | inactive: 0.421 |
| C=C[C@]1(C)C[C@@H](OC(=O)CS[C@H]2CCCN(C(=O)[C@H](N)C(C)C)C2)C2(C)[C@H](C)CC[C@]3(CCC(=O)[C@@H]23)[C@@H](C)[C@@H]1O | inactive: -2.72 | inactive: -1.68 | inactive: -0.863 |
| O=C(Nc1cc(C(F)(F)F)ccc1C(F)(F)F)c1cc(Br)ccc1O | inactive: 2.43 | inactive: -1.47 | inactive: 0.221 |
| COc1ccnc(CS(=O)c2nc3cc(OC(F)F)ccc3[nH]2)c1OC (stereo not given) [pantoprazole sodium] | inactive: 0.576 | inactive: -1.3 | inactive: 0.537 |
| CCc1ccc(CSc2ccc(NS(=O)(=O)c3ccc(C)c(C(=O)O)c3)cc2)cc1 | inactive: -1.09 | inactive: -0.332 | inactive: -1.02 |
| NC(=O)NC1N=C([O][Al]([OH])[OH])NC1=O (stereo not given) | inactive: -0.445 | – | inactive: 0.965 |
| CC(C)C(=O)OC[C@H]1O[C@@H](n2ccc(N)nc2=O)[C@](C)(F)[C@@H]1OC(=O)C(C)C [mericitabine] | inactive: -0.225 | inactive: 1.26 | inactive: 1.67 |
| O=C1NCc2ccccc2CC12CCCN2CC1CC=CCC1 (stereo not given) | inactive: -0.38 | – | inactive: -0.691 |
| CC(=O)OCC(=O)[C@@]1(O)CC[C@H]2[C@@H]3C[C@H](C)C4=CC(=O)C=CC4(C)[C@H]3[C@@H](O)CC21C (stereo not given in full) [Methylprednisolone acetate] | inactive: 0.534 | inactive: 1.35 | inactive: 1.93 |

| Compound | TEAD-luciferase reporter activity (compound concentration: 200 nM) | TEAD-luciferase reporter activity (compound concentration: 2 uM) | TEAD-luciferase reporter activity (compound concentration: 10 uM) |
| --- | --- | --- | --- |
| CN1CCN(CC(=O)[C@@]2(O)CC[C@H]3[C@@H]4CCC5=CC(=O)C=C[C@]5(C)[C@H]4[C@@H](O)C[C@@]32C)CC1 | inactive: -0.885 | inactive: -0.747 | inactive: 0.275 |
| Nc1ncc(-c2cnn(CCO)c2)c2scc(-c3ccc(NC(=O)Nc4cccc(F)c4)cc3)c12 | inactive: 2.27 | inactive: -2.17 | inactive: -0.803 |
| COc1ccc2c(Oc3ccc(OCCN4CCCCC4)cc3)c(-c3ccc(S(C)(=O)=O)cc3)ccc2c1 | inactive: -0.981 | inactive: -1.89 | inactive: -1.4 |
| O=C(N[C@@H](Cc1ccc(-c2ccccc2)cc1)C(=O)O)c1ccc(-c2ccc(C(F)(F)F)cc2)cc1 | inactive: -1.93 | inactive: -0.851 | inactive: 3.97 |
| N=C(N)c1ccc(CNC(=O)[C@@H]2CCCN2C(=O)[C@H](NCC(=O)O)C(c2ccccc2)c2ccccc2)s1 | inactive: -1.15 | inactive: -0.76 | inactive: 0.294 |
| Cc1ccc(CCCC(=O)c2ccc(CCC(C)(N)CO)n2C)cc1 (stereo not given) | inactive: 0.368 | inactive: 0.0718 | inactive: 2.3 |
| CC(=O)Oc1ccc(C(c2ccc(OC(C)=O)cc2)c2ccccn2)cc1 [Viraplex] | – | inactive: 0.475 | – |
| CC(=O)Oc1ccc(C(c2ccc(OC(C)=O)cc2)c2ccccn2)cc1 [Bisacodyl] | inactive: 0.451 | – | inactive: -2.04 |
| c1ccc(CCNCCOc2ccccc2)cc1 | inactive: 2.62 | inactive: -0.48 | inactive: 2.24 |
| CC1=C(C)C(=O)C(Cc2cccnc2)=C(C)C1=O | inactive: -0.268 | inactive: -0.689 | inactive: 0.327 |
| CC(C)n1c(=O)nc(-c2ccc(F)cc2)c2cc3c(cc21)OCO3 | inactive: -1.16 | inactive: -1.79 | inactive: -1.91 |
| CCNC(=O)[C@@H]1CCCN1C(=O)[C@H](CCCNC(=N)N)NC(=O)[C@H](CC(C)C)NC(=O)[C@@H](CC(C)C)NC(=O)[C@H](Cc1ccc(O)cc1)NC(=O)[C@H](CO)NC(=O)[C@H](Cc1c[nH]c2ccccc12)NC(=O)[C@H](Cc1c[nH]cn1)NC(=O)[C@@H]1CCC(=O)N1 [leuprorelin acetate, Camurus] | inactive: -0.898 | – | inactive: 1 |
| CCNC(=O)[C@@H]1CCCN1C(=O)[C@H](CCCNC(=N)N)NC(=O)[C@H](CC(C)C)NC(=O)[C@@H](CC(C)C)NC(=O)[C@H](Cc1ccc(O)cc1)NC(=O)[C@H](CO)NC(=O)[C@H](Cc1c[nH]c2ccccc12)NC(=O)[C@H](Cc1c[nH]cn1)NC(=O)[C@@H]1CCC(=O)N1 [leuprorelin acetate] | – | inactive: -0.826 | – |
| COc1cccc(-c2ccc(C(=O)NCCNC(=O)Cc3cccc(Cl)c3)cc2)c1 | inactive: -0.929 | – | active: 12.4 |
| CC(C)(C)C(=O)N1CCCC1C(=O)N1CCC(c2ccccc2)CC1 (stereo not given) | inactive: -1.19 | – | inactive: 2.21 |
| CCCc1cc(C(N)=S)ccn1 | inactive: -1.07 | – | inactive: -0.856 |
| CCCc1cc(C(N)=S)ccn1 [Protionamide] | – | inactive: 3.78 | – |
| NC(=O)C1CCN(c2ncccc2NC(=O)c2coc(N3CCOCC3)n2)CC1 | inactive: 0.0179 | inactive: -0.126 | inactive: -0.31 |

Looked up one by one from the list above (2):

| Compound | TEAD-luciferase reporter activity (compound concentration: 200 nM) | TEAD-luciferase reporter activity (compound concentration: 2 uM) | TEAD-luciferase reporter activity (compound concentration: 10 uM) |
| --- | --- | --- | --- |
| CN1CCN(C2Cc3ccccc3Sc3ccc(Cl)cc32)CC1 (stereo not given) [(??)-Octoclothepin maleate] | inactive: 0.547 | – | inactive: 3 |
| CC(C)NCC(O)COc1cccc2[nH]ccc12 (stereo not given) [pindolol] | – | inactive: -1.58 | – |

An excerpt of these results, tab-delimited:
Compound	TEAD-luciferase reporter activity (compound concentration: 200 nM)	TEAD-luciferase reporter activity (compound concentration: 2 uM)	TEAD-luciferase reporter activity (compound concentration: 10 uM)
COc1ccc2c(Oc3ccc(OCCN4CCCCC4)cc3)c(-c3ccc(S(C)(=O)=O)cc3)ccc2c1	inactive: -0.981	inactive: -1.89	inactive: -1.4
O=C(N[C@@H](Cc1ccc(-c2ccccc2)cc1)C(=O)O)c1ccc(-c2ccc(C(F)(F)F)cc2)cc1	inactive: -1.93	inactive: -0.851	inactive: 3.97
